Data as given in PubChem BioAssay AID602196 (INSERM, 2012)
This is one part, drawn at random, of about 23,000 reagents tested. Of all reagents, 455 (2%) got an active call. 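Active includes both protection and sensitisation; some change values fall well beyond the stated -50 to +50 range.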 The numbers tell different reagents against one gene apart. No sequences are given here. Not given: the amount of reagent.

Aim: 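Genes whose knock-down alters cisplatin killing of lung cancer cells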
System: human A549 lung cancer cells
Reagents: siRNA pair against human genes
Time to read-out: 48 h transfection before cisplatin; time from cisplatin to read-out not stated
Conditions: cisplatin at a dose killing half of control-siRNA cells; exact dose and duration not given
Detection: 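Cisplatin cell death as a shift from the 50% death seen with control siRNA; siRNAs toxic or growth-blocking alone scored 0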
Direction: two-siRNA summed score (-2 to +2): higher = both siRNAs protect from cisplatin killing; -2 means both sensitise; mean protection from cisplatin (shift in death) and protection from cisplatin (shift in death), siRNA C and protection from cisplatin (shift in death), siRNA D: higher = protection from cisplatin killing
Call rule: 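siRNAs harmful alone (LDH or WST-1) get 0; others get +1 for less and -1 for more cisplatin killing; genes are active when the two siRNAs give the same sign, summing to ±2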
Calls: active = both siRNAs shift cisplatin killing the same way; inactive = no consistent shift, or siRNA harmful alone

Gene	reagent no.	two-siRNA summed score (-2 to +2)	mean protection from cisplatin (shift in death) (%)	protection from cisplatin (shift in death), siRNA C (%)	protection from cisplatin (shift in death), siRNA D (%)	Call
RAX2	1	1	0.5	-14.4	15.4	inactive
AK9	1	0	2.7	-2.9	8.3	inactive
AK9	2	0	13.9	6.2	21.5	inactive
AK9	3	1	10.7	21.2	0.1	inactive
LOC400353	1	0	9.6	6.9	12.3	inactive
CCDC25	1	-1	-0.9	19.8	-21.6	inactive
RPS3A	1	0	31.8	40.4	23.2	inactive
SMC2	1	0	-3.1	-9.7	3.5	inactive
SLC45A2	1	1	1.6	-18.9	22.1	inactive
HACL2	1	0	2.6	-21.6	26.8	inactive
NDST2	1	0	4.1	0.2	8.1	inactive
ZNF654	1	0	2.9	3.7	2.1	inactive
CARD14	1	0	-2	2.2	-6.2	inactive
PADI3	1	0	-2.4	-1.2	-3.6	inactive
PUS3	1	0	8.1	9	7.1	inactive
EPHA6	1	1	9.7	13.9	5.5	inactive
LOC339970	1	0	21.5	14.9	28	inactive
ZC3H12A	1	0	2.7	4.3	1	inactive
LOC441057	1	1	7.7	19.3	-3.9	inactive
THAP11	1	-1	-13.1	-18.3	-7.9	inactive
PSME3IP1	1	0	6.9	14.9	-1.2	inactive
FBXW7	1	0	-5.2	-2.7	-7.7	inactive

4 entries from above, ordered by “mean protection from cisplatin (shift in death) (%)”, highest first.
Gene	reagent no.	two-siRNA summed score (-2 to +2)	mean protection from cisplatin (shift in death) (%)	protection from cisplatin (shift in death), siRNA C (%)	protection from cisplatin (shift in death), siRNA D (%)	Call
LOC339970	1	0	21.5	14.9	28	inactive
EPHA6	1	1	9.7	13.9	5.5	inactive
LOC441057	1	1	7.7	19.3	-3.9	inactive
ZC3H12A	1	0	2.7	4.3	1	inactive

Next reagents follow.
Gene	reagent no.	two-siRNA summed score (-2 to +2)	mean protection from cisplatin (shift in death) (%)	protection from cisplatin (shift in death), siRNA C (%)	protection from cisplatin (shift in death), siRNA D (%)	Call
METTL8	1	0	2.6	2.7	2.4	inactive
USP36	1	0	3.9	-7.8	15.6	inactive
MGC22014	1	1	7.7	14.2	1.3	inactive
CSK	1	0	5.2	3.6	6.8	inactive
RAI14	1	0	2	2.4	1.7	inactive
DNAAF2	1	0	6.8	3.5	10.2	inactive
LOC442653	1	0	16.2	8.6	23.8	inactive
LOC389910	1	0	9	10.9	7.1	inactive
LOC388129	1	0	12.1	19.3	4.9	inactive
ADAP1	1	1	-0.9	-22.3	20.5	inactive
LOC441766	1	0	10.6	6.9	14.3	inactive
GPN3	1	0	3.9	5.1	2.8	inactive
MLH1	1	0	-5.8	-17.6	5.9	inactive
H3C4	1	0	25.3	41.1	9.6	inactive
SHQ1	1	1	19.1	12.4	25.9	inactive
ATXN2	1	1	-0.3	-15.6	14.9	inactive
INTS2	1	0	-1.4	0.2	-2.9	inactive
